The results in this text go back to the supplement of paper PMC7877785.

This data set is described as follows: self-splicing fitness, log relative to wild type (ln ratio); higher = more splicing; Tetrahymena group I intron in knt gene, E. coli kanamycin selection, DiMSum; sequences stand for … in CUCUCU…GGAGGGAAAAGUUAUCAGGCAUGCACCUGGUAGCUAGUCUUUAAACCAAUAGAUUGCAUCGGUUUAAAAGGCAAGACCGUCAAAUUGCGGGAAAGGGGUCAACAGCCGUUCAGUACCAAGUCUCAGGGGAAACUUUGAGAUGGCCUUGCAAAGGGUAUGGUAAUAAGCUGACGGACAUGGUCCUAACCACGCAGCCAAGUCCUAAGUCAACAGAUCUUCUGUUGAUAUGGAUGCAGUUCACAGACUAAAUGUCGGUCGGGGAAGAUGUAUUCUUCUCAUAAGAUAUAGUCGGACCUCUCCUUAAUGGGAGCUAGCGGAUGAAGUGAUGCAACACUGGAGCCGCUGGGAACUAAUUUGUAUGCGAAAGUAUAUUGAUUAGUUUUGGAGUACUCGUGGUCG
Summed up: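 A randomised library covering all eight P1ex-region intron nucleotides was built with the intron in the knt kanamycin-resistance gene on pET-22b(+) and held in E. coli BL21(DE3). Cells were grown overnight at 37°C or 30°C on LB agar, with or without 25 μg/mL kanamycin, plus 100 μg/mL carbenicillin, 50 μM IPTG and 0.2% rhamnose, and pooled colonies were amplicon-sequenced on an Illumina HiSeq 2500. DiMSum fitness is the error-weighted combination of wild-type-normalised replicate fold changes, kanamycin versus none.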

± gives the uncertainty stated by the source. The uncertainty is large for many entries.

Regarding AUCGAGCAAUAUUACGCUCU, the “self-splicing fitness (ln)” value is -3.39 ± 0.55 (30 °C) and -3.23 ± 1 (37 °C).
Consider AGCAAGCAAUAUUACGUUUA, for which the “self-splicing fitness (ln)” value reads like this: (30 °C) -2.1 ± 0.13; (37 °C) -1.96 ± 0.15.
Turning to UUCUAGCAAUAUUACGCAGG, the “self-splicing fitness (ln)” value (37 °C) is -2.6 ± 0.54.
Take GUCCAGCAAUAUUACGACCG: the “self-splicing fitness (ln)” value (37 °C) is -2.12 ± 0.78.
Regarding CGGGAGCAAUAUUACGUCUU, the “self-splicing fitness (ln)” value is, setting by setting: (30 °C) -4.19 ± 0.59; (37 °C) -0.499 ± 0.36.
As to UCCCAGCAAUAUUACGCCCC, under “37 °C”, the “self-splicing fitness (ln)” value is -0.234 ± 1.4.
Same read-out and setting: the value for GAAGAGCAAUAUUACGCUGG was -1.38 ± 0.58.
Consider AUGGAGCAAUAUUACGAUCU, for which the “self-splicing fitness (ln)” value (30 °C) is -1.43 ± 0.59.
Still for that read-out and setting: the value for CGGCAGCAAUAUUACGCUCG was -3.75 ± 0.64.
UAAAAGCAAUAUUACGUGAC: the “self-splicing fitness (ln)” value (30 °C) was -3.65 ± 0.52.
Regarding AUGGAGCAAUAUUACGAAGU, the “self-splicing fitness (ln)” value (30 °C) is -3.07 ± 1.1.
Turning to UAUGAGCAAUAUUACGAAAG, the “self-splicing fitness (ln)” value (37 °C) was -2.43 ± 1.1.
With CUAGAGCAAUAUUACGUUCC, under “30 °C”, the “self-splicing fitness (ln)” value was -4.16 ± 1.
As for GUCGAGCAAUAUUACGAAUG, the “self-splicing fitness (ln)” value was -4.06 ± 0.35 (30 °C) and -0.777 ± 0.2 (37 °C).
As for GGACAGCAAUAUUACGCCAC, the “self-splicing fitness (ln)” value (37 °C) is -1.74 ± 0.6.
Take ACUGAGCAAUAUUACGCGGU: the “self-splicing fitness (ln)” value (37 °C) was -3.21 ± 1.
As for UAGGAGCAAUAUUACGGCCA, the “self-splicing fitness (ln)” value reads like this: (30 °C) -2.27 ± 0.21; (37 °C) -1.7 ± 0.27.
With GUCGAGCAAUAUUACGAACG, for the setting “30 °C”, the “self-splicing fitness (ln)” value is -4.58 ± 0.59.
On to CCAUAGCAAUAUUACGAAUA, for which the “self-splicing fitness (ln)” value runs as follows: (30 °C) -3.44 ± 0.6; (37 °C) -3.09 ± 0.6.
Turning to UCGGAGCAAUAUUACGGAUG, the “self-splicing fitness (ln)” value reads like this: (30 °C) -3.59 ± 0.54; (37 °C) -2.04 ± 0.6.
UUAUAGCAAUAUUACGUUCC: the “self-splicing fitness (ln)” value (30 °C) was -1.55 ± 1.2.
In the case of GAGGAGCAAUAUUACGAUAG, the “self-splicing fitness (ln)” value reads like this: (30 °C) -5.16 ± 1; (37 °C) -1.96 ± 0.85.
For UGCAAGCAAUAUUACGCCAC, where the note is “30 °C”, the “self-splicing fitness (ln)” value is -4.28 ± 0.52.
As to UUCAAGCAAUAUUACGAGCC, for the setting “37 °C”, the “self-splicing fitness (ln)” value was -1.82 ± 0.58.
Turning to GUUGAGCAAUAUUACGGAAA, the “self-splicing fitness (ln)” value (37 °C) is -1.75 ± 0.61.
AGAGAGCAAUAUUACGCGAG: where the note is “37 °C”, the “self-splicing fitness (ln)” value is -2.59 ± 0.54.
In the case of GGUUAGCAAUAUUACGCCGC, under “37 °C”, the “self-splicing fitness (ln)” value was -0.888 ± 0.63.
For UAGUAGCAAUAUUACGAAAA, the “self-splicing fitness (ln)” value was -1.55 ± 0.76 (30 °C) and -2.57 ± 1.1 (37 °C).
On to CAAUAGCAAUAUUACGCGCC, for which the “self-splicing fitness (ln)” value (30 °C) is -2.93 ± 1.1.
For the sequence CUAUAGCAAUAUUACGAUUU, under “30 °C”, the “self-splicing fitness (ln)” value is -4.71 ± 1.
Turning to GGUAAGCAAUAUUACGCGAU, the “self-splicing fitness (ln)” value (37 °C) is -2.33 ± 0.55.
In the case of CCGGAGCAAUAUUACGUUUA, under “30 °C”, the “self-splicing fitness (ln)” value was -3.23 ± 0.6.
As to UGUCAGCAAUAUUACGCCAC, for the setting “37 °C”, the “self-splicing fitness (ln)” value is -1.41 ± 0.61.
Regarding UGUCAGCAAUAUUACGCACA, the “self-splicing fitness (ln)” value (30 °C) is -0.467 ± 0.083 and the “self-splicing fitness (ln)” value (37 °C) was -0.355 ± 0.093.
Take AUAGAGCAAUAUUACGGGGA: the “self-splicing fitness (ln)” value (30 °C) was -4.2 ± 0.72.
For CUGGAGCAAUAUUACGAAGC, the “self-splicing fitness (ln)” value (30 °C) is -3.94 ± 0.61 and the “self-splicing fitness (ln)” value (37 °C) is -3.3 ± 0.74.
Consider CUAUAGCAAUAUUACGCUAA, for which the “self-splicing fitness (ln)” value is -1.65 ± 0.2 (30 °C) and -2.41 ± 0.32 (37 °C).
As for ACAUAGCAAUAUUACGGGCC, the “self-splicing fitness (ln)” value (30 °C) is -3.37 ± 0.6.
As for ACCUAGCAAUAUUACGCCAG, where the note is “37 °C”, the “self-splicing fitness (ln)” value is -1.92 ± 0.52.
Consider AUGCAGCAAUAUUACGAAUU, for which the “self-splicing fitness (ln)” value reads like this: (30 °C) -1.9 ± 0.1; (37 °C) -0.246 ± 0.12.
Regarding UCCGAGCAAUAUUACGGCGC, the “self-splicing fitness (ln)” value (30 °C) is -4.48 ± 0.59.
For UCUUAGCAAUAUUACGCCUU, the “self-splicing fitness (ln)” value (30 °C) is -4.77 ± 0.59.
For ACGGAGCAAUAUUACGUUUC, the “self-splicing fitness (ln)” value is, setting by setting: (30 °C) -4.41 ± 0.72; (37 °C) -2.39 ± 1.1.
As to UAGUAGCAAUAUUACGAAGC, the “self-splicing fitness (ln)” value (30 °C) was -5.23 ± 1.
Take AGUGAGCAAUAUUACGCGCC: the “self-splicing fitness (ln)” value (37 °C) was -2.02 ± 0.58.
For the sequence CUAGAGCAAUAUUACGCACA, the “self-splicing fitness (ln)” value (37 °C) was -0.44 ± 1.4.
For AGGGAGCAAUAUUACGCCCU, the “self-splicing fitness (ln)” value is, setting by setting: (30 °C) -0.86 ± 1.4; (37 °C) -0.693 ± 1.4.
On to CUGGAGCAAUAUUACGCAAA, for which, under “37 °C”, the “self-splicing fitness (ln)” value was -1.13 ± 0.63.
For the sequence AGAGAGCAAUAUUACGAUAC, the “self-splicing fitness (ln)” value is -3.35 ± 0.8 (30 °C) and -1.26 ± 0.74 (37 °C).
Regarding CAUGAGCAAUAUUACGAAGA, the “self-splicing fitness (ln)” value (30 °C) is -3.49 ± 0.52.
In the case of UGAUAGCAAUAUUACGGAAC, for the setting “30 °C”, the “self-splicing fitness (ln)” value is -3.88 ± 1.1.
Regarding ACGGAGCAAUAUUACGUUAC, the “self-splicing fitness (ln)” value (30 °C) was -4.94 ± 0.51.
